No constants are given. Whether binding was seen depends on the method and setting. Binding seen in cells or lysates may run through a third protein. Some results given as binding are weak or reduced against the parent protein; the word gives no strength. Sequences can lack the tags named with a protein.
Columns and labels:
GFP-CEP97 = molecular target: T1, GFP-CEP97 (UniProt Q8IW35); assay: co-IP; HA-tagged membrane trafficking regulators with GFP-CP110 or GFP-CEP97, transiently transfected 293T; lysis in 20 mM Tris-HCl pH 7.5, 150 mM KCl, 1 mM EDTA, 0.5% NP-40, 10% glycerol; which tag was precipitated is not stated for these panels (Fig. 6c, d); immunoblot
T1 sequence: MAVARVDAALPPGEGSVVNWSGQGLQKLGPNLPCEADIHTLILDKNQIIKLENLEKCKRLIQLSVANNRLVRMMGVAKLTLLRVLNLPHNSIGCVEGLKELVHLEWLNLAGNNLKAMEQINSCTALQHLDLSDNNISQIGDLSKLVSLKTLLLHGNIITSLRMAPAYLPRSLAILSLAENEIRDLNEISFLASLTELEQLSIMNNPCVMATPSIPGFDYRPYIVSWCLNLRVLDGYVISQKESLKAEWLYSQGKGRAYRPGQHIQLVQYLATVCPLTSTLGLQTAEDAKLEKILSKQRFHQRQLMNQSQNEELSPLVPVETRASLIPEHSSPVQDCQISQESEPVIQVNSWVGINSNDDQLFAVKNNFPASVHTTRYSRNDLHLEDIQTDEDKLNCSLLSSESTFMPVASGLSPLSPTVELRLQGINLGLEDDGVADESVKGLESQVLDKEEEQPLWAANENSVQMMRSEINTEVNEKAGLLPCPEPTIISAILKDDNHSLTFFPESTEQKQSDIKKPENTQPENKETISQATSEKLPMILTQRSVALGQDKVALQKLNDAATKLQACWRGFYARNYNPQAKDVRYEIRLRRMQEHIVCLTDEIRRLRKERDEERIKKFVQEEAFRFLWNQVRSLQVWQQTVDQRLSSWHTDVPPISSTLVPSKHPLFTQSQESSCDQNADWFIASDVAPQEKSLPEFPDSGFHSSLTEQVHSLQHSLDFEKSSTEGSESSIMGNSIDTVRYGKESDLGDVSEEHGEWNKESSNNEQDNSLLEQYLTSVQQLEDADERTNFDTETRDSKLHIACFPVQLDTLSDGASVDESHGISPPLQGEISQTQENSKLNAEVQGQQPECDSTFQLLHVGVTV

The chains behind the UniProt entries cited, without tags or fusion partners.
UniProt O43303: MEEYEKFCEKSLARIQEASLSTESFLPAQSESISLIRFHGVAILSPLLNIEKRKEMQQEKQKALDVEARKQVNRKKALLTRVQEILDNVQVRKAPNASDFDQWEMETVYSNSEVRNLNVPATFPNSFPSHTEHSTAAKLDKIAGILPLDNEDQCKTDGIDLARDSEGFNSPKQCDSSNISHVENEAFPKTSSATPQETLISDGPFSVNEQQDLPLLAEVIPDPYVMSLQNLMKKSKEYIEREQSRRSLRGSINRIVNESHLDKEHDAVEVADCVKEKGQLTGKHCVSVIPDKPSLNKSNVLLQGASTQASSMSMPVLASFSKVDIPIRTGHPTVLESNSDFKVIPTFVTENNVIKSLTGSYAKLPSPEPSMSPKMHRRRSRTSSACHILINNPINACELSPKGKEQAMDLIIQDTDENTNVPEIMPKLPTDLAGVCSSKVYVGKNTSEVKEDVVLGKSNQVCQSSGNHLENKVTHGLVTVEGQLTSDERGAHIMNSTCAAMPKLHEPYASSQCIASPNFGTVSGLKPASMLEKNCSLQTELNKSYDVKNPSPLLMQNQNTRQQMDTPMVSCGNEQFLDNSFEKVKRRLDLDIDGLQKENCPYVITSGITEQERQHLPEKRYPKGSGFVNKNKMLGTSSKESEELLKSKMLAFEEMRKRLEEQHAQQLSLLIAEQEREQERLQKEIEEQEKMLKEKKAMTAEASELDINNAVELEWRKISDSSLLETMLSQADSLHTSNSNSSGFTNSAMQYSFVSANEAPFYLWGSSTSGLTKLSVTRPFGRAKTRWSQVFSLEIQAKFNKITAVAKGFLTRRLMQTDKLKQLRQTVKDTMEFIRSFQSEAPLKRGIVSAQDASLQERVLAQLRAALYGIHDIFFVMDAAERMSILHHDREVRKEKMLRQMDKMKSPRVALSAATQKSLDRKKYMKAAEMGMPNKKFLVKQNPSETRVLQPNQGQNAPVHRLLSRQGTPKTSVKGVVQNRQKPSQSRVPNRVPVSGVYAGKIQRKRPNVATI

GFP-CP110 = GFP-CP110 (UniProt O43303); assay: as above

B1: HA-EHD1 (protein, UniProt Q9H4M9 1-534)
chain: MFSWVSKDARRKKEPELFQTVAEGLRQLYAQKLLPLEEHYRFHEFHSPALEDADFDNKPMVLLVGQYSTGKTTFIRHLIEQDFPGMRIGPEPTTDSFIAVMHGPTEGVVPGNALVVDPRRPFRKLNAFGNAFLNRFMCAQLPNPVLDSISIIDTPGILSGEKQRISRGYDFAAVLEWFAERVDRIILLFDAHKLDISDEFSEVIKALKNHEDKIRVVLNKADQIETQQLMRVYGALMWSLGKIINTPEVVRVYIGSFWSHPLLIPDNRKLFEAEEQDLFKDIQSLPRNAALRKLNDLIKRARLAKVHAYIISSLKKEMPNVFGKESKKKELVNNLGEIYQKIEREHQISPGDFPSLRKMQELLQTQDFSKFQALKPKLLDTVDDMLANDIARLMVMVRQEESLMPSQVVKGGAFDGTMNGPFGHGYGEGAGEGIDDVEWVVGKDKPTYDEIFYTLSPVNGKITGANAKKEMVKSKLPNTVLGKIWKLADVDKDGLLDDEEFALANHLIKVKLEGHELPADLPPHLVPPSKRRHE
binding (GFP-CEP97): binds
binding (GFP-CP110): binds

Reference: publication PMC13408954
